Measurements from patent US20100041694A1, “AGRICULTURAL COMPOSITION FOR CONTROLLING OR PREVENTING PLANT DISEASES CAUSED BY PLANT PATHOGENIC MICROBES” (Sumitomo Chemical Company, Limited, priority 2007, published 2010).
Some entries share one result that the patent states for a list of compounds.

Assays:
Type in all cases: in vivo
[1] = system: Gibberella fujikuroi; assay: Rice bakanae disease, seed treatment; conditions: contaminated unhulled rice, seed treatment 200 g compound per 100 kg seeds, 1 month
[2] = system: Fusarium oxysporum; assay: Preventing infection by tomato wilt by soil treatment (irrigation); conditions: tomato (Patio) in contaminated soil, 10 mg compound per pot by soil irrigation, 1 month
[3] = system: Gaeumannomyces graminis; assay: Malt damping off, seed treatment; conditions: contaminated malt seeds, seed treatment 200 g compound per 100 kg seeds, 1 month
[4] = system: Verticillium albo-atrum, V. dahliae, V. nigrescens; assay: Potato blue stem, soil irrigation treatment; conditions: potato (Danshaku) in contaminated soil, 10 mg compound per pot by soil irrigation, 2 months
[5] = system: Magnaporthe grisea; conditions: rice (Nihonbare), flowable formulation 500 ppm foliage application; five days after the inoculation
[6] = system: Sclerotinia sclerotiorum; assay: Preventing infection by cucumber Sclerotinia rot, foliage application; conditions: cucumber (Sagami-Hanjiro), flowable formulation 500 ppm foliage application, then inoculation; 18° C. high humidity 4 days
[7] = system: Botrytis cinerea; assay: Preventing infection by cucumber gray mold, foliage application; conditions: cucumber (Sagami-Hanjiro), flowable formulation 500 ppm foliage application, then inoculation; 12° C. high humidity 5 days
[8] = system: Sclerotinia sclerotiorum; assay: Preventing infection by cucumber sclerotical disease by soil treatment (irrigation); conditions: cucumber (Sagami-Hanjiro), 1 mg compound per pot by soil irrigation, inoculation after 1 week; 18° C. high humidity 4 days
[9] = system: Phytophthora infestans; conditions: tomato (Patio), flowable formulation 500 ppm foliage application, then spore spray; 23° C. high humidity 1 day, green house 4 days

Structure (SMILES)	growth of treated plants [1]	blotches in treated plants [2]	growth of treated plants [2]	growth of treated plants [3]	blotches in treated plants [4]	growth of treated plants [4]	infected areas of treated plants relative to infected areas of untreated plants [5] [%]	infected areas of treated plants relative to infected areas of untreated plants [6] [%]	infected areas of treated plants relative to infected areas of untreated plants [7] [%]	infected areas of treated plants relative to infected areas of untreated plants [8] [%]	infected areas of treated plants relative to infected areas of untreated plants [9] [%]
O=C(NCc1ccc(OC(F)F)cc1)c1ccc2ncccc2c1 [Compound 56]	favorably grow at a level equivalent to that of plants that have grown from noncontaminated unhulled rice	no blotches are found	favorably grow at a level equivalent to that of plants that grow have in noncontaminated soil	favorably grow at a level equivalent to that of plants that grow from noncontaminated seeds	no blotches are found	favorably grow at a level equivalent to that of plants that grow in noncontaminated soil					
O=C(NCc1cccc(Cc2ccccc2)c1)c1ccc2ncccc2n1 [Compound 121]	favorably grow at a level equivalent to that of plants that have grown from noncontaminated unhulled rice	no blotches are found	favorably grow at a level equivalent to that of plants that grow have in noncontaminated soil	favorably grow at a level equivalent to that of plants that grow from noncontaminated seeds	no blotches are found	favorably grow at a level equivalent to that of plants that grow in noncontaminated soil	≤ 10	≤ 10	≤ 10		
COCCOCCOc1cccc(CNC(=O)c2ccc3ncccc3c2)c1 [Compound 161]	favorably grow at a level equivalent to that of plants that have grown from noncontaminated unhulled rice	no blotches are found	favorably grow at a level equivalent to that of plants that grow have in noncontaminated soil	favorably grow at a level equivalent to that of plants that grow from noncontaminated seeds	no blotches are found	favorably grow at a level equivalent to that of plants that grow in noncontaminated soil	≤ 10				
Cc1nc2ccc(C(=O)NCc3ccccc3)cc2s1 [Compound 176]	favorably grow at a level equivalent to that of plants that have grown from noncontaminated unhulled rice	no blotches are found	favorably grow at a level equivalent to that of plants that grow have in noncontaminated soil	favorably grow at a level equivalent to that of plants that grow from noncontaminated seeds	no blotches are found	favorably grow at a level equivalent to that of plants that grow in noncontaminated soil		≤ 10		≤ 10	≤ 10
Cc1nc2ccc(C(=O)NCc3ccccc3F)cc2s1 [Compound 177]	favorably grow at a level equivalent to that of plants that have grown from noncontaminated unhulled rice	no blotches are found	favorably grow at a level equivalent to that of plants that grow have in noncontaminated soil	favorably grow at a level equivalent to that of plants that grow from noncontaminated seeds	no blotches are found	favorably grow at a level equivalent to that of plants that grow in noncontaminated soil		≤ 10		≤ 10	≤ 10
